Laboratory results published in patent US20160137740A1.
These are yes or no findings as the source states them, for the method shown. Some binding calls cover weakened binding; strength is not graded here.

Experiments:
[1] = molecular target: KO_P121 (printed on the sheet as KI_P121); assay: flow cytometry, transfected 293F cells, column head printed KI_P121, taken as KO_P121
[2] = molecular target: KO_D137 (printed on the sheet as KI_D137); assay: flow cytometry, transfected 293F cells, column head printed KI_D137, taken as KO_D137 [FIGURE 32B con't]
[3] = molecular target: KO_A126 (printed on D00042 as KI_A126); assay: flow cytometry, transfected 293F cells, column head printed KI_A126, taken as KO_A126 [FIGURE 32B con't]

Measured: binding

B1: 9B12 (antibody, mouse IgG1, V domains shown)
VH: EVQLQESGPSLVKPSQTLSLTCSVTGDSFTSGYWNWIRKFPGNRLEYMGYISYNGITYHNPSLKSRISITRDTSKNHYYLQLNSVTTEDTATYFCARYRYDYDGGHAMDYWGQGTLVTVSS
VL: DIQMTQTTSSLSASLGDRVTISCRASQDISNYLNWYQQKPDGTVKLLIYYTSKLHSGVPSRFSGSGSRTDYSLTITDLDQEDIATYFCQQGSALPWTFGQGTKVEIKR
binds: all assays above
